No constants are given. Whether binding was seen depends on the method and setting. In cells and extracts the contact can be indirect. A yes stands for co-enrichment or nearness to the bait. Other partners may have been found. Where a sequence is shown, tags or fusion partners need not be part of it.
Target: T1, FLAG-tagged MEX3A (endogenous MEX3A protein with a 3X-FLAG peptide fused to its C-terminal region) (mouse (endogenous in neurosphere cultures of C57BL/6J knock-in mice)) (UniProt G3UYU0)
T1 sequence: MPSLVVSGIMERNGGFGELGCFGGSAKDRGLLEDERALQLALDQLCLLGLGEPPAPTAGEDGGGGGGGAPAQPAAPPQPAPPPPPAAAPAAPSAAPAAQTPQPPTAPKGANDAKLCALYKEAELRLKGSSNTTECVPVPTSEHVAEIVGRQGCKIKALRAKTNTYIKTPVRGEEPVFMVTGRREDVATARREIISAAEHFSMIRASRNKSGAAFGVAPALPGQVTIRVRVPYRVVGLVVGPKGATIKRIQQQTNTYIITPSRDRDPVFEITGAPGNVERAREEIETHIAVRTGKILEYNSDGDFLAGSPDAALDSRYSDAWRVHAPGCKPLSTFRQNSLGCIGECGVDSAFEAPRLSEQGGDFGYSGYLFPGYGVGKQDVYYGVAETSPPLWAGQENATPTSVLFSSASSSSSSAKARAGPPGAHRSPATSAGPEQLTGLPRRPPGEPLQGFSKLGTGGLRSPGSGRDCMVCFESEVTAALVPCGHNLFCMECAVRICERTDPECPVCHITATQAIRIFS
Assay: affinity purification with mass spectrometry; anti-FLAG antibody cross-linked to Protein G Dynabeads; lysates (RIPA buffer) of formaldehyde-crosslinked (0.5%, 5 min) Mex3a^FLAG/FLAG neurospheres, overnight at 4 °C; LC-MS/MS of eluted proteins; only proteins present in all FLAG-tagged replicates and not in wild-type controls counted

By UniProt entry, the sequences of proteins in these tests, tags left out.
UniProt Q9EPU0: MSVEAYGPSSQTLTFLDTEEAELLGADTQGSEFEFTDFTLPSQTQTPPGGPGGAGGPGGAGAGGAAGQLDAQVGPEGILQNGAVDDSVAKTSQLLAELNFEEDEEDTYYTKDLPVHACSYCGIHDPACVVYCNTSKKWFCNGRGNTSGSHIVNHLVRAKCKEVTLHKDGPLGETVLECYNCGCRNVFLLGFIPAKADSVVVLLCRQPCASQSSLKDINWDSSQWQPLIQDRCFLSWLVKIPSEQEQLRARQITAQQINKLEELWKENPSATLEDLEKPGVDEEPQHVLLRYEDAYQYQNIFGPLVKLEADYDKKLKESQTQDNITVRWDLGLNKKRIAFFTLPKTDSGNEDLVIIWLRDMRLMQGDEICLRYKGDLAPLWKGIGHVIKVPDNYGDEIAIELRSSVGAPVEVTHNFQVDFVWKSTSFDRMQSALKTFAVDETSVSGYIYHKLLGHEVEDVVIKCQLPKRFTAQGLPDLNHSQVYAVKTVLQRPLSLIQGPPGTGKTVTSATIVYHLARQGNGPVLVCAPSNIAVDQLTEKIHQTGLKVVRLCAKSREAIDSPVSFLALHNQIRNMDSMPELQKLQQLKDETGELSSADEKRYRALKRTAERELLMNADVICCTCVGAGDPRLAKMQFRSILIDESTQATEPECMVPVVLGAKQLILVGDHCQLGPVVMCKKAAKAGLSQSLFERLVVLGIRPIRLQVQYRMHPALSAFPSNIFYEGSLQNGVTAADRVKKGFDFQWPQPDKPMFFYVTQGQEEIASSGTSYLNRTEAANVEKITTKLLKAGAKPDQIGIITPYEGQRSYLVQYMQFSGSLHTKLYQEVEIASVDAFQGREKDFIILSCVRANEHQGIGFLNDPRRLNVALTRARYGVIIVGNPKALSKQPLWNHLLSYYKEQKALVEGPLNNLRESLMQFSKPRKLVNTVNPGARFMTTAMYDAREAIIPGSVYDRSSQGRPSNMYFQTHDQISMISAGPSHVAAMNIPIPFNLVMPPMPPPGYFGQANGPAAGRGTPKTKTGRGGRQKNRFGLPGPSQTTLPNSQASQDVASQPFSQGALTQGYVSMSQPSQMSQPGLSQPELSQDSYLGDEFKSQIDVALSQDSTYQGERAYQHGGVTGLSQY
UniProt P29341: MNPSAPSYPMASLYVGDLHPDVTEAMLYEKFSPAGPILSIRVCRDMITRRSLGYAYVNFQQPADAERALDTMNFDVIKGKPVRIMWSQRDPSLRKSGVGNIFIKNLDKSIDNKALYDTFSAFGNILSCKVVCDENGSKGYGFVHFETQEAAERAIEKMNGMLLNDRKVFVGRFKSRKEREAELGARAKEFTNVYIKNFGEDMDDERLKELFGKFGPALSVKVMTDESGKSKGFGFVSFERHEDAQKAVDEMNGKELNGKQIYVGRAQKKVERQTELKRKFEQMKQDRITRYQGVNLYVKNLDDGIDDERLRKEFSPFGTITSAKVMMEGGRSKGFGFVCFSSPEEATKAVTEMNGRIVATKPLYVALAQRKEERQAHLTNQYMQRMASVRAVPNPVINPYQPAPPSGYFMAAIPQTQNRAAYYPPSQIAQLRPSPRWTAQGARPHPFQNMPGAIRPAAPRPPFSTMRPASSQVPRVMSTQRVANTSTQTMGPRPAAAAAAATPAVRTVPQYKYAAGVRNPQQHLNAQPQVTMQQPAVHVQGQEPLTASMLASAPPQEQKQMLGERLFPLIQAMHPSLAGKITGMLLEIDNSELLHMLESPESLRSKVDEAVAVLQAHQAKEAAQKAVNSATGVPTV
UniProt A2AJ72: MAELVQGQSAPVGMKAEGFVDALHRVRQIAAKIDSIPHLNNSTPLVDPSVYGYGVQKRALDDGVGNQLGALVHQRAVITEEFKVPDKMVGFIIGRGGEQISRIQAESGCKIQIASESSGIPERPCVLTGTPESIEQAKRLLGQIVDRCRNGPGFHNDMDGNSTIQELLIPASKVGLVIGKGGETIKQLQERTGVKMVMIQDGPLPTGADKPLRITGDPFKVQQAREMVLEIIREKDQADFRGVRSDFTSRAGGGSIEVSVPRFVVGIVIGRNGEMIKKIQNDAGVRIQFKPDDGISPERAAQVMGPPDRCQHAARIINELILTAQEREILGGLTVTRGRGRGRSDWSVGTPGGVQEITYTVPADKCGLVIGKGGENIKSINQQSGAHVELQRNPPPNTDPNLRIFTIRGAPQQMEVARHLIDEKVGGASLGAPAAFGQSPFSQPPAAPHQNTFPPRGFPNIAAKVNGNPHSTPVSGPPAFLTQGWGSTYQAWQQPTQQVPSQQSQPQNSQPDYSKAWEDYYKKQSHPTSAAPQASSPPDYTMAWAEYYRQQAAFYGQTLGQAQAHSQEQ
UniProt P70372: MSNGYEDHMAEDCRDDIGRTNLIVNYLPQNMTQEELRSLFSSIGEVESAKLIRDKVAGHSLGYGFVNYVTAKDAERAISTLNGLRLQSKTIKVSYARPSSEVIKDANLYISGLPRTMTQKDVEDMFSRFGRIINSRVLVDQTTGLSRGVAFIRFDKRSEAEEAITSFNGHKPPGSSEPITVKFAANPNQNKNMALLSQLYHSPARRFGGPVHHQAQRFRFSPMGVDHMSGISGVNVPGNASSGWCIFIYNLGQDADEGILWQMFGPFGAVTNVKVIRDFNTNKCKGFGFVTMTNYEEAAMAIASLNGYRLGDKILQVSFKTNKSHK
UniProt P10630: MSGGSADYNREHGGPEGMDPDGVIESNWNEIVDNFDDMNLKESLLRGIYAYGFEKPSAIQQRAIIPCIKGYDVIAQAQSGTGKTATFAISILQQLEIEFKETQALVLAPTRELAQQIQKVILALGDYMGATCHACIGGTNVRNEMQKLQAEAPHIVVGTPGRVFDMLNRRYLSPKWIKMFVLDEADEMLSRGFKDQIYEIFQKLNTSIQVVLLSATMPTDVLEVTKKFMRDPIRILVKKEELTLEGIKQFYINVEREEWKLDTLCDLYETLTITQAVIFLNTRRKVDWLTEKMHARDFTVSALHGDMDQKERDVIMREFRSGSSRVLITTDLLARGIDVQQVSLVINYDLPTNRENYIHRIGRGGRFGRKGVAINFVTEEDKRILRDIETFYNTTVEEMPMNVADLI

binding, binds:
UPF1 (from UniProt Q9EPU0 1-1124)
PABPC1 (from UniProt P29341 1-636)
FUBP3 (from UniProt A2AJ72 1-569)
ELAVL1 (from UniProt P70372 1-326)
EIF4A2 (from UniProt P10630 1-407)

Source: publication PMC9871011
